From patent publication US9617282B2, “Macrocyclic compounds as IRAK4 inhibitors for the treatment of inflammatory diseases” (BIOGEN MA INC., priority 2013, dated 2017) come the findings set out here.

The chains behind the UniProt entries cited, without tags or fusion partners.
UniProt Q9NWZ3, whole entry: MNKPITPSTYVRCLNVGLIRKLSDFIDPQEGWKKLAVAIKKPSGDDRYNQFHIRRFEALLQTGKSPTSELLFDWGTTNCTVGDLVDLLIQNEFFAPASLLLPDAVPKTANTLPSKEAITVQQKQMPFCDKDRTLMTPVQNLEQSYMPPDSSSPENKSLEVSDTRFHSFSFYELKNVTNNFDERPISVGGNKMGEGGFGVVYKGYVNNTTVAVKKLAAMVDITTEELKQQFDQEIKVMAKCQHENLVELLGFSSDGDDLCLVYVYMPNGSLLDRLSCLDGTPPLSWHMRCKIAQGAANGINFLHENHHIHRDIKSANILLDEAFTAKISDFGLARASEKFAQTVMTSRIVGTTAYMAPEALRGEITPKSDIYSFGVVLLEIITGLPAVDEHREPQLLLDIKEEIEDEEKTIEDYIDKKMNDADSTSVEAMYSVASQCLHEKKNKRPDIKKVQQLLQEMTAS

Where two headings read alike, the source gives them in different places. The structures given here were assigned with low confidence; some may be wrong.

The test system of test [1] is A549 cells. The experiment in a line: Cell-based assay, IL-6 ELISA quantification in IL-1 beta stimulated A549 cells. As to conditions: read-out: Celluar Data EC50, 2 ng/ml human IL-1 beta overnight, class symbols.
The target in test [2] is IRAK4 (Homo sapiens (Human), UniProt Q9NWZ3). The experiment in a line: IRAK-4 biochemical kinase assay, AlphaScreen format. Conditions: read-out: Biochemical IRAK4 IC50. On the technique in general: Bead proximity is the source of the signal in Alpha formats.

With `CN1CCC(Cn2cc3c(n2)C(=O)NCCOCCOc2cc(ccn2)-c2nc(cs2)C(=O)N3)CC1` [Example 158], the EC50 in test [1] is > 10 µM. Moreover, the IC50 in test [2] is < 0.1 µM.
In the case of `O=C1Nc2cn(CCCO)nc2C(=O)NCCOCCOc2cc(ccn2)-c2nc1cs2` [Example 152], the EC50 in test [1] is > 10 µM. Further, the IC50 in test [2] (1 nM IRAK4, 1.6 μM peptide, 10 μM ATP, 3.5 h at RT, class symbols) is < 1 µM.

Broadly, the IC50 is the concentration at which inhibition is half-maximal.
